Results published in patent publication US7875634B2, “Cyano anthranilamide insecticides” (E. I. du Pont de Nemours and Company, priority 2003, dated 2011).
Some entries share one result that the patent states for a list of compounds. At least one structure is not confirmed: it was looked up by name or label, or the drawing left a doubt.

Key:
[1] = tested on: diamondback moth (Plutella xylostella); assay: Test A: control of diamondback moth, foliar spray on radish plant; format: in vivo; settings: sprayed at 50 ppm, 6 days, visual assessment of foliage consumed
[2] = tested on: fall armyworm (Spodopiera frugiperda); assay: Test B: control of fall armyworm, foliar spray on corn plant; format: in vivo; settings: sprayed at 50 ppm, 6 days, visual rating

| Compound | feeding damage (very good to excellent levels of plant protection) [1] [%] | feeding damage (excellent levels of plant protection) [2] [%] |
| --- | --- | --- |
| CNC(=O)c1cc(C#N)cc(C)c1NC(=O)c1cc(C(F)(F)F)nn1-c1ncccc1Cl [Compound 2] | ≤ 20 | ≤ 20 |
| CNC(=O)c1cc(C#N)cc(C)c1NC(=O)c1cc(Cl)nn1-c1ncccc1Cl [Compound 3] | ≤ 20 | ≤ 20 |
| Cc1cc(C#N)cc(C(N)=O)c1NC(=O)c1cc(Cl)nn1-c1ncccc1Cl [Compound 4] | ≤ 20 | ≤ 20 |
| CNC(=O)c1cc(C#N)cc(C)c1NC(=O)c1cc(Br)nn1-c1ncccc1Cl [Compound 5] | ≤ 20 | ≤ 20 |
| Cc1cc(C#N)cc(C(N)=O)c1NC(=O)c1cc(Br)nn1-c1ncccc1Cl [Compound 6] | ≤ 20 | ≤ 20 |
| CNC(=O)c1cc(C#N)cc(Cl)c1NC(=O)c1cc(Cl)nn1-c1ncccc1Cl [Compound 7] | ≤ 20 | ≤ 20 |
| Cc1cc(C#N)cc(C(=O)NC(C)C)c1NC(=O)c1cc(C(F)(F)F)nn1-c1ncccc1Cl [Compound 8] | ≤ 20 | ≤ 20 |
| CC(C)NC(=O)c1cc(C#N)cc(Cl)c1NC(=O)c1cc(Cl)nn1-c1ncccc1Cl [Compound 9] | ≤ 20 | ≤ 20 |
| CC(C)NC(=O)c1cc(C#N)cc(Cl)c1NC(=O)c1cc(Br)nn1-c1ncccc1Cl [Compound 10] | ≤ 20 | ≤ 20 |
| CC(C)N(C)C(=O)c1cc(C#N)cc(Cl)c1NC(=O)c1cc(Br)nn1-c1ncccc1Cl [Compound 11] | ≤ 20 | ≤ 20 |
| CNC(=O)c1cc(C#N)cc(Cl)c1NC(=O)c1cc(Br)nn1-c1ncccc1Cl [Compound 12] | ≤ 20 | ≤ 20 |
| CC(C)N(C)C(=O)c1cc(C#N)cc(Cl)c1NC(=O)c1cc(Cl)nn1-c1ncccc1Cl [Compound 13] | ≤ 20 | ≤ 20 |
| N#Cc1cc(Cl)c(NC(=O)c2cc(Br)nn2-c2ncccc2Cl)c(C(N)=O)c1 [Compound 14] | ≤ 20 | ≤ 20 |
| CC(C)NC(=O)c1cc(C#N)cc(Cl)c1NC(=O)c1cc(F)nn1-c1ncccc1Cl [Compound 15] | ≤ 20 | ≤ 20 |
| CNC(=O)c1cc(C#N)cc(Cl)c1NC(=O)c1cc(F)nn1-c1ncccc1Cl [Compound 16] | ≤ 20 | ≤ 20 |
| Cc1cc(C#N)cc(C(=O)N(C)C)c1NC(=O)c1cc(C(F)(F)F)nn1-c1ncccc1Cl [Compound 20] | ≤ 20 | ≤ 20 |
| CC(C)NC(=O)c1cc(C#N)cc(Cl)c1NC(=O)c1cc(C(F)(F)F)nn1-c1ncccc1Cl [Compound 21] | ≤ 20 | ≤ 20 |
| CNC(=O)c1cc(C#N)cc(Cl)c1NC(=O)c1cc(C(F)(F)F)nn1-c1ncccc1Cl [Compound 22] | ≤ 20 | ≤ 20 |
| N#Cc1cc(Cl)c(NC(=O)c2cc(C(F)(F)F)nn2-c2ncccc2Cl)c(C(N)=O)c1 [Compound 23] | ≤ 20 |  |

| Compound | feeding damage (very good to excellent levels of plant protection) [1] [%] | feeding damage (excellent levels of plant protection) [2] [%] |
| --- | --- | --- |
| Cc1cc(C#N)cc(C(=O)NC(C)C)c1NC(=O)c1cc(Cl)nn1-c1ncccc1Cl [Compound 24] | ≤ 20 | ≤ 20 |
| Cc1cc(C#N)cc(C(=O)NC(C)C)c1NC(=O)c1cc(Br)nn1-c1ncccc1Cl [Compound 25] | ≤ 20 | ≤ 20 |
| Cc1cc(C#N)cc(C(=O)NCC#N)c1NC(=O)c1cc(Cl)nn1-c1ncccc1Cl [Compound 26] | ≤ 20 | ≤ 20 |
| Cc1cc(C#N)cc(C(=O)NCC#N)c1NC(=O)c1cc(Br)nn1-c1ncccc1Cl [Compound 27] | ≤ 20 | ≤ 20 |
| Cc1cc(C#N)cc(C(=O)N(C)C)c1NC(=O)c1cc(OCC(F)(F)F)nn1-c1ncccc1Cl [Compound 28] | ≤ 20 | ≤ 20 |
| CNC(=O)c1cc(C#N)cc(C)c1NC(=O)c1cc(OCC(F)(F)F)nn1-c1ncccc1Cl [Compound 29] | ≤ 20 | ≤ 20 |
| Cc1cc(C#N)cc(C(=O)NC(C)(C)C)c1NC(=O)c1cc(C(F)(F)F)nn1-c1ncccc1Cl [Compound 30] | ≤ 20 | ≤ 20 |
| Cc1cc(C#N)cc(C(=O)NCC#N)c1NC(=O)c1cc(C(F)(F)F)nn1-c1ncccc1Cl [Compound 31] | ≤ 20 | ≤ 20 |
| COCCNC(=O)c1cc(C#N)cc(C)c1NC(=O)c1cc(C(F)(F)F)nn1-c1ncccc1Cl [Compound 69] | ≤ 20 |  |
| COCCNC(=O)c1cc(C#N)cc(C)c1NC(=O)c1cc(Cl)nn1-c1ncccc1Cl [Compound 71] | ≤ 20 |  |
| COCCNC(=O)c1cc(C#N)cc(C)c1NC(=O)c1cc(Br)nn1-c1ncccc1Cl [Compound 72] | ≤ 20 |  |
| Cc1cc(C#N)cc(C(=O)NCC(C)C)c1NC(=O)c1cc(C(F)(F)F)nn1-c1ncccc1Cl [Compound 75] | ≤ 20 |  |
| Cc1cc(C#N)cc(C(=O)NCC(C)C)c1NC(=O)c1cc(Br)nn1-c1ncccc1Cl [Compound 77] | ≤ 20 |  |
| Cc1cc(C#N)cc(C(=O)NC(C)CS(C)(=O)=O)c1NC(=O)c1cc(Br)nn1-c1ncccc1Cl (stereo not shown) [Compound 79] | ≤ 20 |  |
| CSCCC(C)NC(=O)c1cc(C#N)cc(C)c1NC(=O)c1cc(Cl)nn1-c1ncccc1Cl (stereo not shown) [Compound 80] | ≤ 20 |  |
| CSCCC(C)NC(=O)c1cc(C#N)cc(C)c1NC(=O)c1cc(Br)nn1-c1ncccc1Cl (stereo not shown) [Compound 81] | ≤ 20 |  |
| CSCCC(C)NC(=O)c1cc(C#N)cc(C)c1NC(=O)c1cc(C(F)(F)F)nn1-c1ncccc1Cl (stereo not shown) [Compound 82] | ≤ 20 |  |
| Cc1cc(C#N)cc(C(=O)NC(C)CCS(C)(=O)=O)c1NC(=O)c1cc(Cl)nn1-c1ncccc1Cl (stereo not shown) [Compound 83] | ≤ 20 |  |
| Cc1cc(C#N)cc(C(=O)NC(C)CCS(C)(=O)=O)c1NC(=O)c1cc(Br)nn1-c1ncccc1Cl (stereo not shown) [Compound 84] | ≤ 20 |  |
